## Library screening results

Each number is a percent effect as filed. The controls that fix the scale are not given in the record; negative values are as filed. The compounds are a random part of those screened. A dash means the value is not listed here; it may have been measured.

A: 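Whole-cell assay for inhibitors of Mycobacterium tuberculosis growth, labelled Cornell in the record; the read-out is not stated. The concentration is filed as 10 mM, unlikely as a test dose, so the dose is not known. The record gives no direction; compounds strong in two other growth screens of this library score well above the rest, so higher reads as stronger inhibition. Size under these conditions: about 53,000 compounds, about 900 of them at 50% or above in at least one test.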
B: 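Assay on Mycobacterium tuberculosis, filed only as a heat shock assay from Cornell; the read-out is not stated. The concentration is filed as 10 mM, unlikely as a test dose, so the dose is not known. The record gives no direction; compounds that gave an IC50 in retests scored well above the rest, so higher reads as stronger inhibition. Size under these conditions: about 69,000 compounds, about 930 of them at 50% or above in at least one test.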

compound	A	B
O=C(O)C(F)(F)F.O=C(O)C(F)(F)F.c1ccc(CN2CCc3ncnc(C4CCOC4)c3CC2)nc1 (configuration not stated)	5.966	-18.06
Cc1nc(N(C)C)nc2c1COCC21CCN(C(=O)NCC(C)C)C1 (configuration not stated)	-	-4.922
O=C(O)C(F)(F)F.c1cncc(N2CCCC3(CCN(CC4CCCO4)CC3)C2)c1 (configuration not stated)	26.11	-6.06
CCc1nn(C)c(Cl)c1CN1CCCC2(C1)CN(C)C(=O)O2 (configuration not stated)	4.087	2.769
O=C1CCCCN1CCCC(=O)N1CCC2(CC1)[C@H](O)C[C@@H]2O	-72.57	15.21
Nc1cc(C(=O)NCC2CCN(Cc3cccc(O)c3)C2)ccn1 (configuration not stated)	3.548	-16.63
CCS(=O)(=O)N1Cc2ccccc2CC1C(=O)OCc1c(C)noc1C (configuration not stated)	4.294	-6.098
CSc1nnc(CC2CCN(C(=O)CCc3cccnc3)CC2)n1C	5.416	15.3
O=C1CC2(CCN(S(=O)(=O)c3cccs3)C2)CN1c1ccccc1 (configuration not stated)	49.84	-16.09
CN(C)CC1(O)CCCN(Cc2ccccc2OCC(=O)N(C)C)C1 (configuration not stated)	22.79	-25.77
CN(C)c1cc(C(=O)N2CCN(c3cc(C#N)ccn3)CC2)ccn1	-	5.414
O=c1cc(CN2CCCCC2c2cccc(F)c2)[nH]c2ncnn12 (configuration not stated)	17.23	-7.477
Cc1ccc(C2COCCN2C(=O)c2ccsc2)o1 (configuration not stated)	10.03	-31.29
Cc1ccc(-c2cc(C(F)(F)F)nc(N3CCOCC3)n2)s1	4.079	10.69
CNc1nc(CNC(=O)Nc2ccccc2OC(C)C)cs1	-	-20.55
N[C@H]1c2ccccc2C[C@@H]1NC(=O)C1CCN(Cc2ccco2)CC1	7.328	19.36
CCOCc1nnc(NCc2cccc(C)c2)o1	20.73	14.98
CCOc1cccc(CNc2cccc(C(=O)OC)c2)c1O	2.238	-4.05
Cn1nnc2c1CCN(Cc1ccncc1)C2COCC1CC1.O=C(O)C(F)(F)F.O=C(O)C(F)(F)F (configuration not stated)	17.79	-7.973
Cc1ccc(-c2cc(-c3c(C)nn(CCO)c3C)c(C#N)c(N)n2)cc1	5.922	10.03
COc1ccccc1CN1CC[C@]2(C[C@@H](OCC(=O)N(C)C)CO2)C1.O=C(O)C(F)(F)F	-4.915	1.71
COCCN1CCC(CN(CC2CCCO2)C(=O)CCNC(C)=O)CC1 (configuration not stated)	4.909	19.99
Cc1n[nH]cc1CNCc1cccc(OCC(F)(F)F)c1.Cl	1.876	-11.33
O=C(NCC1CCN(CCc2ccccc2)C1)c1c(F)cccc1F (configuration not stated)	-	-2.786
COc1ccc(CCC(=O)N(C(C)C)C2CCOCC2)cc1	-5.122	-7.253
CCOc1ccc(CN2CCOCC2c2[nH]ncc2C)cc1CO (configuration not stated)	22.39	-11.31
CC(C)[C@@H]1CN(C(=O)CCc2ccc(F)cc2)C[C@H]1C(=O)O	-	-135
O=C(N1CCCC1)N1CCN(Cc2cccnc2)c2ncccc2C1.O=C(O)C(F)(F)F.O=C(O)C(F)(F)F	18.95	-26.36
COc1ccccc1C1(CNc2cn[nH]c(=O)c2Cl)CC1	-	-5.327
CCC(NC(=O)c1ccc(COC)o1)c1nc(C(F)(F)F)cs1 (configuration not stated)	-9.64	-17.75
[H][C@]12CC[C@](O)(c3ccccc3F)[C@@]1([H])CN(C(=O)c1cc(C3CC3)on1)C2	7.092	7.524
O=C(Cn1cc(C(=O)O)ccc1=O)Nc1ccc(Cl)cc1F	-	3.084
Cc1nc(-c2ccccc2)sc1CNC(=O)c1ccc(=O)n(C)c1	2.434	-31.17
O=C(O)C(F)(F)F.O=C(O)C(F)(F)F.O=C(O)C(F)(F)F.O=C(O)C(F)(F)F.c1ccc(CN2CCC3(CC2)CCN(Cc2cccnc2)C3)nc1	31.17	-11.1
Cc1cc(NC(=O)N(C)C2CCCN(c3ccccc3)C2=O)n(C)n1 (configuration not stated)	-3.592	10.05
CC(C)N(Cc1cnn(C)c1)CC1CCCN(S(C)(=O)=O)C1 (configuration not stated)	-38	-5.82
Cc1cccc(C(C)CNS(=O)(=O)CCCC#N)c1 (configuration not stated)	4.608	17.28
Cc1cccc(-n2nnnc2C(C)(C)Nc2ccccc2C)c1	-	-10.09
Cc1cnn(CCCNC(=O)NCCS(=O)(=O)Nc2ccccc2)c1	-15.79	-21.09
Cc1nc(C2CCCN2C(=O)Cn2cncn2)no1 (configuration not stated)	-	-3.977
O=C(NC1CC1)c1cc(Cl)ccc1-n1cnnn1	-	6.062
CN(Cc1cc(C2CC2)on1)C(=O)C(c1cccnc1)N1CCCC1 (configuration not stated)	10.91	11.69
Cc1c[nH]nc1C1CCN(c2cnccn2)C1 (configuration not stated)	-23.02	-31.34
Cc1cnn(CC2CN(CC(=O)NCc3ccco3)CCO2)c1 (configuration not stated)	10.16	-3.911
CCc1noc(C(C)N(C)CC(=O)Nc2ccc(C)cc2)n1 (configuration not stated)	6.464	-27.93
CNC(=O)C(C)(C)CNC(=O)Nc1ccc(C)cn1	9.912	-10.39
CCCc1ccc(S(=O)(=O)NC(=O)CCC2CCCO2)cc1 (configuration not stated)	-	0.6566
COCCN(C)C(=O)c1nc2c(s1)CCCN2C	12.4	-5.056
Oc1cccc2ccc(CN3CCC4(CCNCC4)C3)nc12	15.62	-49.46
Cn1cc(CN2CCc3onc(COCC4CC4)c3C2)cn1	-11.36	-27.27
CC(C)COCC1CN(Cc2ccc3c(c2)OCO3)Cc2ncn(C)c21.O=C(O)C(F)(F)F.O=C(O)C(F)(F)F (configuration not stated)	14.43	2.322
CC1CN(Cc2cccc(CNC3CCCC3)c2)CCO1 (configuration not stated)	-	-18.13
O=C(O)C(F)(F)F.O=C(O)C(F)(F)F.[H][C@@]12CCN(Cc3cc(C)on3)C[C@]1([H])OCCN(c1ccc(C)nc1)C2=O	-35.27	-1.633
CC(C)Oc1ccccc1-c1cc(CN)ccc1F	-26.23	-16.6
Cc1cc(NC2CC3(CCN(Cc4cscn4)C3)C2)ncn1 (configuration not stated)	-7.551	-12.72
O=C(NCc1ccco1)N1CCC(n2ccc(C(F)(F)F)n2)CC1	35.32	40.63
COc1ccc(-c2c[nH]c(C3CC(=O)N(CC(C)C)C3)n2)cc1 (configuration not stated)	22.35	4.733
OCC1CCCN1c1cc(NCc2ccsc2)ncn1 (configuration not stated)	-	-27.1
O=C(CN1C(=O)CCNC1=O)N1CCC2(CCc3ccccc32)CC1	-	-29.61
COc1ccccc1C1(O)CCCN(C(=O)c2cnc(SC)nc2)C1 (configuration not stated)	8.297	12.22
CCN(CC)c1ncccc1CNCc1cc2ccccc2s1	29.17	8.522
COc1cccc(-c2nc(CNCCc3cccnc3)cs2)c1	11.91	-0.6336
CCCc1n[nH]c(C2CN(C(=O)c3ccc(C)[nH]c3=O)CCO2)n1 (configuration not stated)	-23.81	-18.3
Cn1c(=O)oc2cc(Nc3nccnc3C#N)ccc21	24.68	-8.367
CC(NCc1ccc(Cl)o1)c1nnc2n1CCCC2 (configuration not stated)	2.328	-16.35
CN(Cc1noc2c1CCCC2)C(=O)Cn1cnc2ccccc2c1=O	-5.938	7.364

From ChEMBL document CHEMBL3988442, “University of Dundee, Small-Polar-MMV Screening Library” (2021).